According to PubChem BioAssay AID1487 (National Center for Advancing Translational Sciences (NCATS), 2009):
Some of the results follow. The main result of the screen is listed elsewhere. These columns were measured beside it and carry no call. The list favours compounds with an active or inconclusive main result. Words in brackets tell the shape of the fitted curve; partial curves, single points and poor fits give uncertain potencies.

Experiment: qHTS Assay for Modulators of Lamin A Splicing
Settings: HeLa LMNA splicing GFP/RFP minigene ratio, 48 h
How it was run: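 S3 HeLa cells stably expressing lamin A-EGFP splicing minigene plus DsRed2, 600 cells/well, 48 h compound exposure at 37C. Laser-scanning cytometry; analysed as GFP (500-530 nm)/RFP (575-640 nm) total intensity ratio; 0.5% DMSO vehicle.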

[1] = measured here: GFP splicing reporter channel
[2] = measured here: RFP viability control channel

Compound	AC50 [1]	AC50 [2]
Cc1cc(Cl)nc2c(C(C)C)cccc12	1.41 µM [rising, partial curve, poor fit]	2.24 µM [rising, single point]
Cc1nc2ccccc2n1CC(O)Cn1c(C(F)(F)F)nc2ccccc21 (configuration not stated)		31.6 µM [rising, single point]
CC(=O)c1ccc(NC(=S)NC(C)c2ccc(Cl)cc2Cl)cc1 (configuration not stated)		20 µM [rising, single point]
CCC(=O)c1ccc(OCC(O)Cn2nc(C)c(C(C)=O)c2C)cc1 (configuration not stated)		0.178 µM [falling, full curve, poor fit]
Cc1onc(-c2ccccc2Cl)c1C(=O)Nc1cccc2nsnc12		10 µM [rising, single point]
CCOC(=O)/C(=C\c1cccnc1)C(=O)c1cc(C(C)=O)c(Nc2ccccc2)s1	5.62 µM [falling, single point]	3.16 µM [falling, single point]
COc1ccccc1CNC(=S)NCCc1ccccc1		20 µM [rising, single point]
CCN(CC)c1ccc(N=Cc2ccccc2[N+](=O)[O-])cc1	12.6 µM [rising, partial curve]	25.1 µM [rising, partial curve]
COCc1nc2ccccc2n1Cc1c(F)cccc1Cl	0.0282 µM [rising, full curve, poor fit]	
Cc1nn(C)c2ncc(C(N)=O)c(Oc3ccc(Cl)cc3)c12	0.00501 µM [falling, full curve, poor fit]	14.1 µM [falling, partial curve, poor fit]
CC(=O)N1CCN(c2nc(CC(C)C)c3c(c2C#N)CCC3)CC1		0.00447 µM [rising, full curve, poor fit]
O=C(NNC(=O)c1ccccc1Cl)c1ccccc1Cl	0.0708 µM [rising, full curve]	
CO[C@H]1C=CO[C@]2(C)Oc3c(C)c(O)c4c(O)c(c5c(c4c3C2=O)NC2(CCN(CC(C)C)CC2)N=5)=NC(=O)C(C)=CC=C[C@@H](C)[C@@H](O)[C@@H](C)[C@@H](O)[C@@H](C)[C@@H](OC(C)=O)[C@@H]1C	1.41 µM [falling, partial curve, poor fit]	
Cc1ccc(C(=O)NC(=S)NNC(=O)COc2ccccc2C)cc1		17.8 µM [rising, single point]
CN1C(=O)N(C)c2ccc(C=O)c3cccc1c23		3.55 µM [rising, full curve]
Cc1cc(NC(=O)c2ccc(F)cc2)n(-c2ccccn2)n1		35.5 µM [falling, single point]
CN1CCOc2cc(S(=O)(=O)Nc3ccc(F)cc3)ccc21	11.2 µM [rising, single point]	
c1csc(CCNc2ncnc3sc4c(c23)CCC4)c1		5.01 µM [rising, partial curve]
O=C(CCNC(=O)Cn1ccc2ccccc2c1=O)NCCC1=CCCCC1	20 µM [rising, partial curve]	
CC[C@]1(O)CC2CN(CCc3c([nH]c4ccccc34)[C@@](C(=O)OC)(c3cc4c(cc3OC)N(C=O)[C@H]3[C@@](O)(C(=O)OC)[C@H](OC(C)=O)[C@]5(CC)C=CCN6CC[C@]43[C@@H]65)C2)C1 (some centres not stated)	0.158 µM [falling, full curve, poor fit]	0.0282 µM [falling, full curve]
C/C(N)=C(/C#N)C(=O)COC(=O)CNS(=O)(=O)c1c(F)cccc1F	0.158 µM [rising, full curve, poor fit]	
CCOC(=O)C1(CCCc2ccccc2)CCN(C(=O)c2cc(C)nc(C)n2)CC1	10 µM [falling, partial curve, poor fit]	10 µM [falling, partial curve, poor fit]
CN(c1ccc(O)cc1)c1nc(-c2ccccc2)cs1		0.1 µM [rising, full curve]
O=S(Cc1ccc(Br)cc1)Cc1nnc(SCc2c(F)cccc2Cl)n1-c1ccccc1 (configuration not stated)	5.01 µM [rising, partial curve, poor fit]	4.47 µM [rising, full curve]
CC(=O)c1ccc(S(=O)(=O)N2CCN(C)CC2)cc1		0.794 µM [falling, partial curve]
Cc1cccc(OCCCSc2nc3ccc(C)cc3[nH]2)c1	22.4 µM [rising, single point]	35.5 µM [rising, single point]
COc1ccc(C(=O)N2CCN(Cc3cc(=O)n4nc(-c5ccccc5C)sc4n3)CC2)cc1OC	1 µM [rising, partial curve, poor fit]	
O=C(NCCc1ccccc1)C(c1ccccc1)N(C(=O)c1csnn1)C1CC1 (configuration not stated)	0.316 µM [rising, partial curve, poor fit]	
COc1ccc(N(CC(=O)N2CCc3ccccc32)S(=O)(=O)c2c(C)noc2C)cc1	10 µM [rising, partial curve]	

An excerpt from further up:
Compound	AC50 [1]	AC50 [2]
CC(=O)N1CCN(c2nc(CC(C)C)c3c(c2C#N)CCC3)CC1		0.00447 µM [rising, full curve, poor fit]
O=C(NNC(=O)c1ccccc1Cl)c1ccccc1Cl	0.0708 µM [rising, full curve]	
